Data as given in article PMC11904109.
These are yes or no findings as the source states them, for the method shown. In cells and extracts the contact can be indirect. Some entries that bind do so weakly or less than the wild type. Where a sequence is shown, tags or fusion partners need not be part of it.

Target: rabbit MKRN3 (makorin ring finger protein 3), intact, fused with GFP-N173 or GFP-C155 for BiFC (rabbit) (UniProt G1T456)
Experiment: split reporter; BiFC: MKRN3 fused with GFP-N173 and with GFP-C155, plasmid pairs transfected 1:1 into HEK-293T cells, green fluorescence observed 48 h after transfection

B1: rabbit MKRN3 (makorin ring finger protein 3), intact, fused with GFP-N173 or GFP-C155 for BiFC (protein, UniProt G1T456 1-515)
chain: MEEPAAPSGAQEASGAQAGAEAAGEGASGPSLPECETSGESVAPDTAPARAALGLVPLRVAPSPAHLRMVGLRHVQAARGGARPSHLPSRSTGSWTKQVVCRYYLHGLCKEGENCRYSHDLSGRQVAREGHGAPPRASADRGPSMAAPSQPPTQEVAEAAPAASSSSLPLIGSAAERGRFEAELECAGQGAVGGSGVEGWEEAVEFVPGQPYRGRRVASVPEAPLQSSVTEREQMAVGMGQQMAVGMGMQLCPHAARGQCFRGESCMYLHGEICDMCGLQALHPLDAAQRADHRKACVEAHEKDMELSFAVQRSMDKVCGICMEVVYDKVNPSDRRFGILSNCNHPFCLKCIRRWRRARHFENRIVKSCPQCRVTSNFVIPSEFWVEEEEEKQRLIQQYKEALSNKPCRYFAEGRGHCPFGEHCFYKHSYPEGQGEEPQGRGGGPSAAYWHQLSQPVQLGEGSLLFKSSKKELVTLRLASLLFKRFLSLRNEFPFSEEQWDLLHYQLEEYFNLNL
In the case of B1, the binding is reported as “binds”.
